The campaign covered roughly 1,600 compounds. About 420 (26%) were called active. The shares of active, inactive and inconclusive entries below differ from those in the screen. The call rests on the fitted dose curve; in most records, active means well fitted inhibition curve with a large enough effect; inconclusive means small, poorly fitted or top-dose-only effect; inactive means flat fitted curve, though single readings scatter. Potencies of inconclusive entries are doubtful fits and often do not repeat.
Assay: qHTS for Inhibitors of TGF-b: Cytotox Counterscreen for Cherry Picks; further: nearly all actives have a fitted effect of over 70% in size
Details: HepG2 CAGA-GFP viability, ATP luminescence, 18 h, cells stimulated with TGF-beta, 500 pg/mL; series mostly up to 46.1 µM
Outline: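 HepG2 CAGA-GFP cells (1000/well, 1% FBS) given compound titrations plus TGF-beta 500 pg/mL for 18 h at 37 C; viability by CellTiter-Glo luminescence, normalized to DMSO and no-cell wells; concentration-response curves classified.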
Potency means the concentration at half of the fitted maximal effect.

Compound	Potency
Cc1cccc(C)c1N(CC(=O)Nc1cc(Cl)ccc1Oc1ccccc1)S(C)(=O)=O	inactive
Cc1cc(/C=N/NC(N)=S)c(C)n1-c1cccc(Cl)c1	inactive
CC1=C(Nc2ccc(C(=O)O)cc2)C(=O)c2ccccc2C1=O	inconclusive: 29.1 µM [inhibitor, single point]
COc1ccc(OC)c2sc(NC(=O)CCS(=O)(=O)c3ccccc3)nc12	active: 16.4 µM
COc1ccc(/C=C2/CCC(CN3CCOCC3)C2=O)cc1 (stereo not drawn)	active: 3.66 µM
CCOC(=O)C#CC(CCc1ccccc1)OS(N)(=O)=O (stereo not drawn)	inactive
O=C(Oc1c(CN2CCOCC2)cc(Cl)c2cccnc12)c1cccs1	inconclusive: 3.26 µM [inhibitor, full curve]
CCOc1ccc(CCN2C(=S)N([C@@H](CC(C)C)CN3CCC[C@@H]3CN3C(=S)NC[C@@H]3Cc3ccc(O)cc3)C[C@@H]2CC(C)C)cc1	inconclusive: 29.1 µM [inhibitor, single point]
c1ccc(Sc2ncnc3ccccc23)cc1	inconclusive: 18.4 µM [inhibitor, partial curve, poor fit]
CC(OC(=O)Cc1ccc(F)cc1)C(=O)NCc1ccc2c(c1)OCO2 (stereo not drawn)	inactive
COc1cccc(CN2CCC2(C)C(=O)Nc2cccc3cccnc23)c1F (stereo not drawn)	inactive
NC(=S)NN=Cc1c[nH]c2nccnc12	inconclusive: 29.1 µM [inhibitor, single point]
O=C(Nc1ccccc1)Nc1ncc([N+](=O)[O-])s1	inconclusive: 4.61 µM [inhibitor, full curve]
O=C(Nc1cc(S(=O)(=O)N2CCCCC2)ccc1O)c1ccccc1NS(=O)(=O)c1ccc(F)cc1	inconclusive: 18.4 µM [inhibitor, single point]
Cc1ccc(CN=C(N)Nc2nc(C)cc(C)n2)cc1	inconclusive: 16.4 µM [inhibitor, partial curve]
CCn1c2ccccc2c2cc(NC(=O)c3cc(OC)c(OC)c(OC)c3)ccc21	inactive
FC(F)(F)c1cccc(-c2nc3nc(Cl)c(Cl)nc3[nH]2)c1	active: 6.51 µM
CN(C)CCN(C)C1CN(Cc2ccc(F)cc2)S(=O)(=O)C1 (stereo not drawn)	inactive
COc1ccccc1Cc1c(-c2ccco2)nc2ccc(C)cn12	inconclusive: 20.6 µM [inhibitor, single point]
CCSc1ccc([C@@H]2[C@@H]3C(=O)N(CC)C(=O)[C@@H]3[C@]3(C(=O)OC)CCCN23)cc1	inactive
O=[N+]([O-])c1ccc(N/N=C/c2cccnc2)cc1	inconclusive: 14.6 µM [inhibitor, single point]
Cc1cccc(N2CCN(CC(=O)NCC3CCCCC3)CC2)c1C	inactive
Cc1onc(-c2ccccc2Cl)c1C(=O)Nc1cccc(-c2cn3cccnc3n2)c1	inactive

Quoted at random: 5 compounds from above, in no set order.
Compound	Potency
O=C(Nc1cc(S(=O)(=O)N2CCCCC2)ccc1O)c1ccccc1NS(=O)(=O)c1ccc(F)cc1	inconclusive: 18.4 µM [inhibitor, single point]
COc1cccc(CN2CCC2(C)C(=O)Nc2cccc3cccnc23)c1F (stereo not drawn)	inactive
CC1=C(Nc2ccc(C(=O)O)cc2)C(=O)c2ccccc2C1=O	inconclusive: 29.1 µM [inhibitor, single point]
c1ccc(Sc2ncnc3ccccc23)cc1	inconclusive: 18.4 µM [inhibitor, partial curve, poor fit]
CCOC(=O)C#CC(CCc1ccccc1)OS(N)(=O)=O (stereo not drawn)	inactive

Next part

Compound	Potency
COc1cc(C(=O)Oc2ccccc2/C=N/NC(=O)c2ccc(C)cc2)cc(OC)c1OC	inconclusive: 2.91 µM [inhibitor, full curve]
O=C(Nc1ccc([N+](=O)[O-])cc1)Nc1cnccn1	inconclusive: 16.4 µM [inhibitor, single point]
CCOc1ccc(CCN2C(=S)N([C@@H](Cc3ccc(O)cc3)CN3CCC[C@@H]3CN3C(=S)NC[C@@H]3CC(C)C)C[C@@H]2CC(C)C)cc1	inactive
CCO[C@@H]1OC(C(=O)NCc2ccccc2)=C[C@H](c2ccc(Br)cc2)[C@H]1CCCO	inactive
CCO[C@@H]1OC(C(=O)NCc2ccccc2)=C[C@H](c2ccc(C(F)(F)F)cc2)[C@H]1CCCO	inactive
CC1CCCN(S(=O)(=O)c2ccc(S(=O)(=O)NC(C)c3cccs3)cc2)C1 (stereo not drawn)	inactive
O=C(N/N=C/c1cc(Cl)ccc1O)c1ccccc1Br	inconclusive: 5.8 µM [inhibitor, full curve]
COc1ccc2c(c1)sc1nc(-c3ccccc3)cn12	inconclusive: 29.1 µM [inhibitor, single point]
Cc1ccc(NC(=O)c2ccc(Nc3c([N+](=O)[O-])cc([N+](=O)[O-])cc3[N+](=O)[O-])cc2)cc1	inconclusive: 20.6 µM [inhibitor, partial curve]
CCCc1cc(=O)n2[nH]cc(-c3ccc(Cl)cc3)c2n1	inconclusive: 4.11 µM [inhibitor, full curve]
O=C(C1=C[C@@H](c2ccc(C(F)(F)F)cc2)C[C@@H](OCc2ccc(CO)cc2)O1)N1CCN(Cc2ccccc2)CC1	inactive
CC1=C(C(=O)N(C(C)C)C(C)C)CC(CC(=O)NCCc2ccccn2)C(=O)N1Cc1ccc(C(C)(C)C)cc1 (stereo not drawn)	inactive
O=C(Nc1nc2cc3c(cc2s1)OCCO3)c1ccc([N+](=O)[O-])o1	active: 4.11 µM
COc1ccc2nc(N3CCN(C(=O)c4ccc([N+](=O)[O-])o4)CC3)sc2c1	active: 23.1 µM
O=C(Nc1cccnc1)c1ccc([N+](=O)[O-])s1	active: 23.1 µM
Cc1ccnc(NC(=O)CCCOc2cc(=O)n(C)c3ccccc23)c1	active: 4.11 µM
CCCCC(CC)C(=O)Nc1ncc([N+](=O)[O-])s1 (stereo not drawn)	inconclusive: 11.6 µM [inhibitor, partial curve]
CC(=O)N1c2ccc(S(=O)(=O)N3CCC(C(=O)Nc4cccc(C(F)(F)F)c4)CC3)cc2CC1C (stereo not drawn)	inconclusive: 18.4 µM [inhibitor, single point]
CCc1ccccc1N1CCN(S(=O)(=O)c2cc(OC)ccc2OC)CC1	inconclusive: 8.2 µM [inhibitor, partial curve]
O=C(CN1CCN(C(=O)C2CCN(C(=O)/C=C/c3ccccc3)CC2)CC1)Nc1ccc(F)cc1	inactive
O[C@@H]1[C@@H](O)C=C2CCN3Cc4cc5c(cc4[C@H]1C23)OCO5 (stereo partly drawn)	inconclusive: 4.61 µM [inhibitor, full curve]
CCOC(=O)c1c(NC(=O)CN2CCCCC2)sc2c1CCN(C(=O)OCC)C2	inconclusive: 18.4 µM [inhibitor, single point]
CC(C)C[C@H]1CNC(=S)N1CC1CCCN1C[C@H](CC(C)C)N1C[C@H](Cc2ccc(O)cc2)N(CC2CCCCC2)C1=S (stereo partly drawn)	inconclusive: 23.1 µM [inhibitor, single point]

Compound	Potency
O=C(Nc1cccc(NC(=O)c2ccc([N+](=O)[O-])o2)c1)c1ccco1	inconclusive: 20.6 µM [inhibitor, single point]
C(=C\c1ccccc1)/CN1CCN(C(CCc2ccccc2)c2nnnn2C2CCCC2)CC1 (stereo not drawn)	inconclusive: 29.1 µM [inhibitor, single point]
CCN(CC)c1ccc(/C=C/c2ccc3ccc(OC)cc3[n+]2CC)cc1	inconclusive: 4.61 µM [inhibitor, full curve]
Clc1ccc2c(c1)C1=C(C(c3ccncc3)O2)C(c2ccc(Br)cc2)n2ncnc2N1 (stereo not drawn)	inactive
Cc1ccc(S(=O)(=O)Nc2ccc3c(c2)C(=O)N([C@H](C)CO)C[C@H](C)[C@@H](CN(C)Cc2ccc(-c4ccccc4)cc2)O3)cc1	inconclusive: 20.6 µM [inhibitor, single point]
O=C(Nc1cccc(NC(=O)c2ccccc2Cl)c1)c1ccc([N+](=O)[O-])o1	active: 6.51 µM
O=C(N/N=C/c1cn(Cc2ccccc2)c2ccccc12)c1ccncc1	active: 2.31 µM
COc1ccc(CNC(=S)N/N=C/c2ccc(O)c(OC)c2)cc1	inactive
CCCCc1ccc(NC(=S)Nc2ccc(Nc3ccc(OC)cc3)cc2)cc1	inconclusive: 20.6 µM [inhibitor, single point]
CCOc1ccc(CCN2C(=S)N([C@@H](Cc3ccc(O)cc3)CN3CCC[C@@H]3CN3C(=S)NC[C@@H]3Cc3ccccc3)C[C@@H]2Cc2ccc(O)cc2)cc1	inconclusive: 3.26 µM [inhibitor, full curve]
COc1ccc(C(NC(=O)C(C)C)c2ccc3cccnc3c2O)cc1 (stereo not drawn)	inconclusive: 0.58 µM [inhibitor, full curve, poor fit]
O=c1[nH]c2ccccc2cc1-c1nnn(-c2ccc(Cl)c(Cl)c2)n1	inactive
O=C1CS(=O)(=O)N(Cc2ccccc2F)c2ccc(Br)cc21	inconclusive: 29.1 µM [inhibitor, single point]
COc1ccc(S(=O)(=O)Nc2ccccc2C(=O)Nc2nc(-c3ccc(F)cc3)cs2)cc1OC	inconclusive: 6.51 µM [inhibitor, partial curve]
O=C1N[C@@H](Cc2c[nH]c3ccccc23)COC(=O)[C@@H](Cc2ccc(F)cc2)CC/C=C/C[C@@H]1CC(=O)N(CCO)Cc1ccccc1	inactive
COC(=O)c1ccc(C)c(NS(=O)(=O)c2ccc(OC)cc2)c1	inactive
COc1ccc(/C(C)=N/Nc2nc3ccccc3nc2C)cc1	inactive
CCN(C[C@H]1N[C@@](Cc2ccccc2)(C(=O)OC)[C@H]2C(=O)N(Cc3ccccc3)C(=O)[C@@H]12)C(=O)Nc1ccc(F)cc1	inactive
OC(COC(c1ccccc1)c1ccccc1)CN1CCN(c2cccc(Cl)c2)CC1 (stereo not drawn)	inconclusive: 29.1 µM [inhibitor, single point]
CC1C(=O)N(Cc2cn(CCC3OCCCO3)nn2)CCS(=O)(=O)N1Cc1ccc(-c2ccc(Cl)cc2)cc1 (stereo not drawn)	inconclusive: 25.9 µM [inhibitor, single point]
O=C(CSc1nnc(COc2cccc3cccnc23)o1)N1CCc2ccccc21	inconclusive: 2.31 µM [inhibitor, full curve]
CC(=O)Oc1ccccc1C(=O)C=Cc1cccc([N+](=O)[O-])c1	inconclusive: 2.91 µM [inhibitor, full curve]

3 entries from above, ordered by molar mass, rising.
Compound	Potency
COc1ccc2c(c1)sc1nc(-c3ccccc3)cn12	inconclusive: 29.1 µM [inhibitor, single point]
O=C(Oc1c(CN2CCOCC2)cc(Cl)c2cccnc12)c1cccs1	inconclusive: 3.26 µM [inhibitor, full curve]
O=C(CSc1nnc(COc2cccc3cccnc23)o1)N1CCc2ccccc21	inconclusive: 2.31 µM [inhibitor, full curve]

From PubChem BioAssay AID720535 (National Center for Advancing Translational Sciences (NCATS), 2013)
